# Experimental data published in PubChem BioAssay AID743255 (National Center for Advancing Translational Sciences (NCATS), 2014).
# Sequences of proteins named here, by UniProt entry; tags and fusion partners are left off. A change or cut given only in a name is not applied to a line headed by its entry.
# UniProt O94782: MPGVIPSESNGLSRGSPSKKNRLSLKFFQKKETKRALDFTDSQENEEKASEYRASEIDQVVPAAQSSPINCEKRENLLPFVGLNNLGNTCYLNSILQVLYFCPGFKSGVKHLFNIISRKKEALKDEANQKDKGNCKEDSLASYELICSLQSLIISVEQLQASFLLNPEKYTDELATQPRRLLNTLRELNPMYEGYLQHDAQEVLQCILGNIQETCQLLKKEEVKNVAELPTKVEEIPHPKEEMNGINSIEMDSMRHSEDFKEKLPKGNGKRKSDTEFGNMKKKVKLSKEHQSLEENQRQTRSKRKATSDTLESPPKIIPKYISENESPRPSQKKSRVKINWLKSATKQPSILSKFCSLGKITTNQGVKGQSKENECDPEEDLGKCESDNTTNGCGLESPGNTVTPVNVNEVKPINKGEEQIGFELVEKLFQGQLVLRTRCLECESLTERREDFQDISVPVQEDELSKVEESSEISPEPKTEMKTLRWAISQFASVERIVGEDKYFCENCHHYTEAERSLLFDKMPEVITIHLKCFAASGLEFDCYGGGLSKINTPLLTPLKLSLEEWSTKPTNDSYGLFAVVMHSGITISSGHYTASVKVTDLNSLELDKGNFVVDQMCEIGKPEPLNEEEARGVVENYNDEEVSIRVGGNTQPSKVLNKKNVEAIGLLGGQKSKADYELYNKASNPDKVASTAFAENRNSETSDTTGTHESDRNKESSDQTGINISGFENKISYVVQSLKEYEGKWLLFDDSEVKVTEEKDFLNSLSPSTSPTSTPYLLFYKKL
# Screen size: about 390,000 compounds; about 910 (0.23%) were called active. Inconclusive results, whose numbers are uncertain, are shown with a selection of clear calls. Calls come from the whole dose curve; as a rule, active = well fitted inhibition curve with a large enough effect; inconclusive = small, poorly fitted or top-dose-only effect; inactive = no such curve, though single readings can be large or run the other way. Potencies beside an inconclusive call are fits to weak or partial responses and may not hold up.
# Molecular target: Ubiquitin carboxyl-terminal hydrolase 1 (Homo sapiens) (UniProt O94782)
# Assay: Inhibitors of USP1/UAF1: Primary Screen; note: nearly all actives have a fitted effect of over 60% in size
# Conditions: recombinant USP1/UAF1, Ub-Rhodamine cleavage fluorescence; series mostly up to 57.1 µM
# In short: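 Step one: compound is pinned into 1nM USP1/UAF1 in HEPES pH 7.8 buffer with TCEP. Step two: 15 min room-temperature incubation. Step three: Ub-Rho (150nM final) starts cleavage, tracked by fluorescence over six one-minute reads.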
# Potency is the fitted concentration of half-maximal effect.
row,SMILES,Potency
1,Cc1cc(C)c(NC(=O)CCN2C(=O)c3ccccc3S2(=O)=O)c(C)c1,inactive
2,COc1ccc(-c2noc(CN(C(C)C)S(=O)(=O)c3ccc(Br)cc3)n2)cc1,inactive
3,CCN(CC)CCOC(=O)CCc1cccc2ccccc12,inactive
4,O=C(Cn1c(=O)nc(-c2ccccc2)c2ccccc21)NCc1ccc(F)cc1,"inconclusive: 5.01 µM [inhibitor, partial curve]"
5,S=c1[nH]nc(-c2cc(-c3ccccc3)n[nH]2)n1/N=C/C=C/c1ccco1,"inconclusive: 31.6 µM [inhibitor, partial curve, poor fit]"
6,Nc1c(C(=O)Nc2ccccc2F)sc2nc(-c3ccco3)ccc12,"inconclusive: 25.1 µM [inhibitor, partial curve]"
7,COC(=O)CCC(=O)OC1(C)C(=O)C=C2C=C(C3CC3)N(Cc3ccc(OC)cc3)C=C2C1=O (centres undefined),"inconclusive: 28.2 µM [inhibitor, single point]"
8,CCSc1nsc(NC(=O)Nc2ccccc2F)n1,"inconclusive: 35.5 µM [inhibitor, partial curve]"
9,CC(C)=NNC1=NC(C)(C)Cc2ccccc21,"inconclusive: 44.7 µM [inhibitor, partial curve, poor fit]"
10,COc1ccc(C(=O)/C=C/c2ccc(OC)c(COc3ccc(F)cc3)c2)cc1,"inconclusive: 0.794 µM [inhibitor, full curve, poor fit]"
11,Cc1cccc(Nc2nnc(-c3ccc(N4CCOCC4)c([N+](=O)[O-])c3)c3ccccc23)c1,inactive
12,NC(=O)NO,inactive
13,Clc1ccccc1C(c1ccccc1)(c1ccccc1)n1ccnc1,inactive
14,NS(=O)(=O)c1ccc(-c2ccc(/C=N/Nc3ccc(C(=O)O)cc3)o2)cc1,"inconclusive: 15.8 µM [inhibitor, partial curve, poor fit]"
15,CCN(CC)CCCNC(=O)c1ccc2c(c1)NC(=O)C(CS(=O)(=O)Cc1cccc(Br)c1)N2 (centres undefined),"inconclusive: 0.355 µM [inhibitor, full curve]"
16,Cc1ccc(CNC(=O)c2c(O)nc3c(C)cccn3c2=O)cc1,"inconclusive: 6.31 µM [inhibitor, single point]"
17,C[C@H](CO)N1C[C@H](C)[C@@H](CN(C)C)Oc2c(NC(=O)CCC(F)(F)F)cccc2C1=O,"inconclusive: 0.251 µM [inhibitor, full curve, poor fit]"
18,CC1CCN(S(=O)(=O)c2ccc3c(c2)CCN3C(=O)Nc2ccc(Br)cc2)CC1,inactive
19,COC(=O)CCC(=O)OC1(C)C(=O)C2=CN(CCCOC(C)C)C(c3ccc(OC)cc3)=CC2=C(Br)C1=O (centres undefined),active: 28.2 µM
20,CC(=O)c1sc(=S)n(-c2ccc(Cl)cc2)c1C,inactive
21,COc1ccccc1NC(=O)CSc1ccc2nnc(-c3cccnc3)n2n1,"inconclusive: 39.8 µM [inhibitor, partial curve]"
22,CCN1CCN(C(c2ccc(F)cc2)c2c(O)cc(C)n(CCOC)c2=O)CC1 (centres undefined),"inconclusive: 5.01 µM [inhibitor, partial curve]"

# 5 records picked at random from those above:
row,SMILES,Potency
6,Nc1c(C(=O)Nc2ccccc2F)sc2nc(-c3ccco3)ccc12,"inconclusive: 25.1 µM [inhibitor, partial curve]"
10,COc1ccc(C(=O)/C=C/c2ccc(OC)c(COc3ccc(F)cc3)c2)cc1,"inconclusive: 0.794 µM [inhibitor, full curve, poor fit]"
1,Cc1cc(C)c(NC(=O)CCN2C(=O)c3ccccc3S2(=O)=O)c(C)c1,inactive
18,CC1CCN(S(=O)(=O)c2ccc3c(c2)CCN3C(=O)Nc2ccc(Br)cc2)CC1,inactive
15,CCN(CC)CCCNC(=O)c1ccc2c(c1)NC(=O)C(CS(=O)(=O)Cc1cccc(Br)c1)N2 (centres undefined),"inconclusive: 0.355 µM [inhibitor, full curve]"

# (next part)

row,SMILES,Potency
1,Cc1ccc(CNC(=O)C(=O)NCC(c2ccco2)S(=O)(=O)c2cccs2)cc1 (centres undefined),"inconclusive: 7.08 µM [inhibitor, partial curve, poor fit]"
2,COc1ccc2oc(C(=O)OCC(=O)Nc3ccc(C)c(S(=O)(=O)N4CCOCC4)c3)c(C)c2c1,"inconclusive: 8.91 µM [inhibitor, partial curve, poor fit]"
3,CCCCCn1c(CNC(=O)c2cccs2)nc2ccccc21,"inconclusive: 28.2 µM [inhibitor, single point]"
4,CCOc1ccc(NC(=O)Nc2ccc(NC(C)=O)cc2)cc1,"inconclusive: 28.2 µM [inhibitor, partial curve]"
5,O=Cc1cn(CC(O)CN2CCCCC2)c2ccccc12 (centres undefined),inactive
6,O=[N+]([O-])c1cc(C(F)(F)F)ccc1NCCNC(=S)Nc1ccc(Cl)cc1,"inconclusive: 44.7 µM [inhibitor, partial curve, poor fit]"
7,O=C(N[C@H]1/C=C\[C@@H](O)CCCC1)OCc1ccccc1,"inconclusive: 70.8 µM [inhibitor, partial curve, poor fit]"
8,CCC(C)NC(=O)C1CCN(S(=O)(=O)CC)CC1 (centres undefined),"inconclusive: 0.282 µM [inhibitor, full curve, poor fit]"
9,COc1c(/C=N/Nc2ccc([N+](=O)[O-])cc2[N+](=O)[O-])c(C)nn1-c1ccccc1,inactive
10,Cc1ccc(N(CC(=O)Nc2ccc(C)c(F)c2)S(=O)(=O)c2c(C)n[nH]c2C)cc1,"inconclusive: 44.7 µM [inhibitor, partial curve, poor fit]"
11,Cc1cc2ccccc2n1CCNC(=O)c1cccc(Cl)c1,"inconclusive: 89.1 µM [inhibitor, partial curve, poor fit]"
12,O=C(c1ccco1)N1N=C(C2CCCCC2)CC1(O)C(F)(F)F (centres undefined),inactive
13,CSCCC(NC(=O)c1cccc(C)c1)C(=O)NNC(=O)c1cccs1 (centres undefined),inactive
14,COc1cccc(CNC(=O)C2CCC(CNS(=O)(=O)c3ccc(Br)s3)CC2)c1 (centres undefined),inactive
15,COc1ccc(-c2noc(CSc3nnc(-c4ccncc4)n3-c3ccc(C)cc3)n2)cc1,"inconclusive: 44.7 µM [inhibitor, partial curve, poor fit]"
16,CC(O)CNCCOc1ccccc1OCc1ccccc1 (centres undefined),inactive
17,CC(C)(C)OC(=O)NCCC(=O)N/N=C/c1ccc2nccnc2c1,"inconclusive: 31.6 µM [inhibitor, single point]"
18,Cc1ccc(NC(=O)c2c(C)nc3sc(C(=O)Nc4ccc(F)cc4)c(N)c3c2-c2ccc(C)o2)c(C)c1,"inconclusive: 28.2 µM [inhibitor, partial curve, poor fit]"
19,Cc1ccc(CNc2oc(-c3ccc(COc4ccc(C)cc4)o3)nc2C#N)cc1,"inconclusive: 39.8 µM [inhibitor, partial curve, poor fit]"
20,Cc1ccc(C)c(NC(=O)Cn2c(=O)n(-c3ccc(CC(=O)NCC4CCCO4)cc3)c(=O)c3ccccc32)c1 (centres undefined),"inconclusive: 79.4 µM [inhibitor, partial curve, poor fit]"
21,O=C(NN(c1ccccc1)c1ccccc1)c1ccccc1F,inactive
22,C/C=C(/CCC1NCCc2c1[nH]c1ccccc21)[Si](C)(C)C (centres undefined),"inconclusive: 35.5 µM [inhibitor, single point]"

row,SMILES,Potency
1,COc1ccc(C(=O)Oc2ccc(/C=N/Nc3ccc(Cl)c(C(=O)O)c3)cc2OC)cc1,"inconclusive: 100 µM [inhibitor, partial curve, poor fit]"
2,Cc1nn(Cc2ccccc2)c(C)c1NC(=O)c1noc2c1CCc1ccccc1-2,"inconclusive: 5.01 µM [inhibitor, partial curve]"
3,CCCc1nc2ccccc2n1CC(O)COc1ccc(C(=O)OC)cc1 (centres undefined),"inconclusive: 0.355 µM [inhibitor, full curve, poor fit]"
4,O=C(NCc1ccc2c(c1)OCO2)c1nc(Cn2cc(Br)cn2)no1,"inconclusive: 31.6 µM [inhibitor, single point]"
5,COc1ccc(CN(C(=O)c2cc3ccccc3oc2=O)C2CCS(=O)(=O)C2)cc1OC (centres undefined),"inconclusive: 5.62 µM [inhibitor, single point]"
6,Cc1ccc(NC(=O)Cn2c(=O)oc3cc(S(=O)(=O)N4CCCCC4)ccc32)c(Cl)c1,"inconclusive: 44.7 µM [inhibitor, partial curve, poor fit]"
7,Cc1cccc(Cn2c(SCc3ccc(C(=O)NCc4ccccc4F)cc3)nc3ccncc32)c1,"inconclusive: 5.62 µM [inhibitor, partial curve, poor fit]"
8,Cc1cccc(NC(=O)c2nc[nH]c2C(=O)N[C@@H](C)C(=O)OCc2ccccc2)c1,"inconclusive: 44.7 µM [inhibitor, partial curve, poor fit]"
9,CCOC(=O)C1=C(C)NC(=O)NC1c1ccc(C)o1 (centres undefined),"inconclusive: 31.6 µM [inhibitor, partial curve, poor fit]"
10,CCOc1ccc(NC(=O)CN2CCCC2c2cccs2)cc1S(=O)(=O)N1CCCC1 (centres undefined),"inconclusive: 50.1 µM [inhibitor, partial curve, poor fit]"
11,Nc1nn(-c2ccccc2)c(N)c1N=Nc1cccc(F)c1,inactive
12,Cc1cc(=O)n2[nH]c(N)c(N=Nc3ccccc3F)c2n1,inactive
13,Oc1ccc(Br)cc1CNc1cccc2cccnc12,"inconclusive: 39.8 µM [inhibitor, partial curve]"
14,COc1c(O)ccc2cnn(-c3ccccc3C)c(=O)c12,inactive
15,CCN1C[C@@H]2[C@@H]3C(=O)N(C)C(=O)[C@@H]3[C@](Cc3ccccc3)(C1=O)N2C(=O)c1ccc(F)cc1,"inconclusive: 1.78 µM [inhibitor, full curve, poor fit]"
16,CCCN1CCc2c(sc(NC(=O)c3ccc(S(=O)(=O)N(C)c4ccccc4)cc3)c2C(=O)NC)C1,"inconclusive: 35.5 µM [inhibitor, partial curve]"
17,CCC(=O)Nn1c(C2CCC2)nc2ccccc2c1=O,"inconclusive: 3.55 µM [inhibitor, full curve]"
18,CC(C)(Cl)C1Cc2cc3ccc(=O)oc3cc2O1 (centres undefined),"inconclusive: 0.631 µM [inhibitor, full curve, poor fit]"
19,Cc1ccc(NC2=C/C(=N/S(=O)(=O)c3cccs3)c3ccccc3C2=O)cc1,"inconclusive: 1 µM [inhibitor, full curve]"
20,Nc1cc(S(=O)(=O)c2ccc(N3CCCCC3)c(N)c2)ccc1N1CCCCC1,"inconclusive: 70.8 µM [inhibitor, partial curve, poor fit]"
